Article PMC7177637
Results are given in words; binding and its absence hold for the method and conditions named. Binding seen in cells or lysates may run through a third protein. Some results given as binding are weak or reduced against the parent protein; the word gives no strength.

Amino acid sequences for entries named in this document (tags omitted). A change or cut given only in a name is not applied to a line headed by its entry. Chains listed by the source or under a name are the forms on record and can include a tag or linker.
UniProt P35222: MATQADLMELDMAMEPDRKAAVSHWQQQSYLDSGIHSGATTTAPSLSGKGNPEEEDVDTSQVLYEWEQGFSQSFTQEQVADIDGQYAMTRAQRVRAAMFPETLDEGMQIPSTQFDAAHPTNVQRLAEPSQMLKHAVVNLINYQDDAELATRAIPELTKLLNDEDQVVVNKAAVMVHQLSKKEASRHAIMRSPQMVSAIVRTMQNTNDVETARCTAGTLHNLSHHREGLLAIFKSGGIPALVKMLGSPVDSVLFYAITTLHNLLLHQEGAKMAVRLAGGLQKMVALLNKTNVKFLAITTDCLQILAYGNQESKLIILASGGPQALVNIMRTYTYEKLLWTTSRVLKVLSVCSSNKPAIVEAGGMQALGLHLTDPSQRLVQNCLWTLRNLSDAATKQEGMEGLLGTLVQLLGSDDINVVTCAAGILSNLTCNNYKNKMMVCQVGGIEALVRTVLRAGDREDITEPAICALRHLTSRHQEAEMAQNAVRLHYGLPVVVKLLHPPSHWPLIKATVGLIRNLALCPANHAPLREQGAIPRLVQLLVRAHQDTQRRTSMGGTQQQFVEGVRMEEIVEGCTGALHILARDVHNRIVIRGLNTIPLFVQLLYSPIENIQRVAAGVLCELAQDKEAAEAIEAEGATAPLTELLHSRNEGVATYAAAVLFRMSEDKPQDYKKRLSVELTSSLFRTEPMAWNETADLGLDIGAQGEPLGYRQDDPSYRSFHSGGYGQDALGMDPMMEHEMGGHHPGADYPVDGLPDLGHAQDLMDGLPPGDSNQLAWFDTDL
PTPRG D1028A (substrate trapping form expressed in K562 cells) (P23470, form named): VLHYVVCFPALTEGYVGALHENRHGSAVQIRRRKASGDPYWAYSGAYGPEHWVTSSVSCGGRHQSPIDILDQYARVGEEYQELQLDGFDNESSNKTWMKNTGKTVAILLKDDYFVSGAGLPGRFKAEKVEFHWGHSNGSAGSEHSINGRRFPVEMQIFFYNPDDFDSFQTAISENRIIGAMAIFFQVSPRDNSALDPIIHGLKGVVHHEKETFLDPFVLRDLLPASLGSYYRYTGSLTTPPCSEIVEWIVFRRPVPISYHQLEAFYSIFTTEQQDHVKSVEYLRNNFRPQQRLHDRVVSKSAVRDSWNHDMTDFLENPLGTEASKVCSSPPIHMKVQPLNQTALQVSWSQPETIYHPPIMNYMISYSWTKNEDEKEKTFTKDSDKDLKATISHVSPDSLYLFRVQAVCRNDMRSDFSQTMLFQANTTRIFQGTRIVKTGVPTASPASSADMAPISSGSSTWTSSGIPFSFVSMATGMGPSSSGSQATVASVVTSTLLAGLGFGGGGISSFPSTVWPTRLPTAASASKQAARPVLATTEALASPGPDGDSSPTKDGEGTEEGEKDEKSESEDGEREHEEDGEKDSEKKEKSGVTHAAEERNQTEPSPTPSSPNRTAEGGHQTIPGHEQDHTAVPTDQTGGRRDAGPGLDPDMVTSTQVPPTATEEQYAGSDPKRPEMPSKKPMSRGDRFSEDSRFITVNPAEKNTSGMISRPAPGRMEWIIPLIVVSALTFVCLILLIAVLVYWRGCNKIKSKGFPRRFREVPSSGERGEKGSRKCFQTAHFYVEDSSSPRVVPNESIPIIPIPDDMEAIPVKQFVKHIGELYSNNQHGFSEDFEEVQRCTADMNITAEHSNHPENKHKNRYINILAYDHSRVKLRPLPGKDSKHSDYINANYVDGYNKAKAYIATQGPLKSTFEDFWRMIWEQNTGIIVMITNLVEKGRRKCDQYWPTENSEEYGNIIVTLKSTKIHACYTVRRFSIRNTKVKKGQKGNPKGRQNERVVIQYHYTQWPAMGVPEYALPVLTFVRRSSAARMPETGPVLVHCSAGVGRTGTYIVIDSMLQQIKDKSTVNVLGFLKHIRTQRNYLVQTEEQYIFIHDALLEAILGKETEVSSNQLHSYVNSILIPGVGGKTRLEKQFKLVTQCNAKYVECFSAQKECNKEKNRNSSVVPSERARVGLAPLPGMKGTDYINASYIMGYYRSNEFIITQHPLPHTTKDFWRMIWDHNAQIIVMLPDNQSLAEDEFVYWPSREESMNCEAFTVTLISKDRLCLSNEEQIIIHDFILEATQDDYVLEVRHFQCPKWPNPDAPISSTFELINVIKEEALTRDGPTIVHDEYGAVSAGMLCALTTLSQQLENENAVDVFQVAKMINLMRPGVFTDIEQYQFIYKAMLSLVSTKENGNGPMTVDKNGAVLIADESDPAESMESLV
UniProt O15169: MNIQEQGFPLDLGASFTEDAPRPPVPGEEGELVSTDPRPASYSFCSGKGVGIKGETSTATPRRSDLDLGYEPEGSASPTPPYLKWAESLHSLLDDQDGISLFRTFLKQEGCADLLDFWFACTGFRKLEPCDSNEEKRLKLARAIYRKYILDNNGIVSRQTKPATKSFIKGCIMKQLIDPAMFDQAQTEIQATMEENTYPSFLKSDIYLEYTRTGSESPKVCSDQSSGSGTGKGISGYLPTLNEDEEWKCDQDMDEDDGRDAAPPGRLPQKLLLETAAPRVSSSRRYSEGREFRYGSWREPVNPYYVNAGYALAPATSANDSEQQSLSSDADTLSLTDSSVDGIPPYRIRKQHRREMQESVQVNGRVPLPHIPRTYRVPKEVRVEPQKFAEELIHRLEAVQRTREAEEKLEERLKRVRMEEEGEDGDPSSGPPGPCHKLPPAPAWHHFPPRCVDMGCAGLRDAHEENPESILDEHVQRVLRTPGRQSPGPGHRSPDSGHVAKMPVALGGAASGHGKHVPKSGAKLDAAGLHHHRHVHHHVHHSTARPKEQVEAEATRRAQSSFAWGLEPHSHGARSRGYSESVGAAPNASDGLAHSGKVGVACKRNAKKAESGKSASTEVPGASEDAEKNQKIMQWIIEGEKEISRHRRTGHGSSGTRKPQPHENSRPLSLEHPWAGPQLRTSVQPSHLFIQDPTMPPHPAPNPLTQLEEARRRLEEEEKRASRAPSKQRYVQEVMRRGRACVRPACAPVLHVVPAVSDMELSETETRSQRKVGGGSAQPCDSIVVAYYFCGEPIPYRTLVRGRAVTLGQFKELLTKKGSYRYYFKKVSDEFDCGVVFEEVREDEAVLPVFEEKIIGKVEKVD

Assays:
[1] = target: β-catenin (CTNNB1) (human (endogenous in K562 and U937)) (UniProt P35222); test: co-IP; PTPRG-positive K562 cells (K562 γ1); immunoprecipitation with anti-β-catenin on Protein G-Sepharose, Western blot with anti-Axin1
[2] = target: β-catenin (CTNNB1) (human (endogenous in K562 and U937)) (UniProt P35222); test: co-IP; K562 cells without PTPRG; immunoprecipitation with anti-β-catenin on Protein G-Sepharose, Western blot with anti-Axin1
[3] = target: PTPRG D1028A (substrate trapping form expressed in K562 cells) (human) (UniProt P23470); test: co-IP; K562 cells expressing PTPRG D1028A; antibody on Protein G-Sepharose, 500 µg lysate, 3 h at 4 °C; rabbit IgG as negative control; Western blot

binding [1] | binding [3] | Substance | binding [2]
binds | – | Axin1 (from UniProt O15169 1-862) | no binding (condition: K562 cells without PTPRG)
– | binds | β-catenin (CTNNB1) (from UniProt P35222 1-781) | –
